# Results: publication PMC5597121, “The human bitter taste receptor T2R38 is broadly tuned for bacterial compounds” (PLoS ONE, 2017)
# Protein sequences, listed by entry. Tags and fused reporters are not part of them.
# UniProt P59533, whole entry A49P/I296V: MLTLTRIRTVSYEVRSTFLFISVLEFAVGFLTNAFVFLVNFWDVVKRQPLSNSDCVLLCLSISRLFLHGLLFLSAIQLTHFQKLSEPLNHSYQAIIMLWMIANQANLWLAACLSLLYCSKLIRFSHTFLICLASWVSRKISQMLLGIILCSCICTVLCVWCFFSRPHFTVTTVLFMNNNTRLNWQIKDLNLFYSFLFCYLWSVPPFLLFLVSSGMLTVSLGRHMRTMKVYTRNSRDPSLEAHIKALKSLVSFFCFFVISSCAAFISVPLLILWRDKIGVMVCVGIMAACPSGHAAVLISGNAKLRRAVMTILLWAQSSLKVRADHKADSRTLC
# Some entries of the source have several records that differ or are many. They are shown here; other results are not. The source may hold further records. The values listed for one entry do not match, cause unknown; some may be repeats, others may stem from another dose, organism or construct than stated.
# What was measured:
# [1] = system: mock transfected cells (empty vector); experiment: Single cell calcium imaging, control: mock transfected (empty vector) Peakrapid cells; assay type: cell-based, human; details: PTC 0.1 mM, reference wells of each experiment
# [2] = target: T2R38 (Homo sapiens, UniProt P59533, A49P/I296V); experiment: Single cell calcium imaging, Peakrapid cells (Gα16gustducin44) transiently transfected with T2R38; assay type: cell-based
smiles,measurement,setting,value
"NC(=S)Nc1ccccc1 [PTC, phenylthiocarbamide, reference compound]",surface covered by activated cells (given as fraction),[1],"0.002778, 0.002081, 0.004778, 0.005498, 0.003497, 0.005048, 0.006106"
same,surface covered by activated cells (given as fraction),"[2]; PTC 0.1 mM, reference wells of each experiment","0.1726, 0.3159, 0.3026, 0.2925, 0.1701, 0.2565, 0.2452, 0.2538"
CSSC,surface covered by activated cells (given as fraction),"[2]; dimethyldisulfide 0.00251189, log10[ ] -2.6, experiment 6",0.0352 and 0.0749
CS [methylmercaptan],percentage of surface covered by activated cells,"[2]; méthylmercaptan 0.00316228, log10[ ] -2.5","0.57, 0.68, 0.33, 0.56, 0.23, 1.70, 0.61, 1.02%"
same,percentage of surface covered by activated cells,"[2]; méthylmercaptan 0.0075, log10[ ] -2.12494","2.27, 1.86, 1.56, 1.81, 2.33, 2.50, 3.22, 4.68%"
CCC(C)=O [2-butanone],percentage of surface covered by activated cells,"[2]; 2 butanone 0.03, log10[ ] -1.52","5.70, 4.51, 18.44, 19.86, 9.34, 8.53%"
same,percentage of surface covered by activated cells,"[2]; 2 butanone 0.08, log10[ ] -1.09691","5.12, 6.15, 19.65, 13.75, 12.50, 13.21%"
CC(C)C=O [2-methylpropanal],percentage of surface covered by activated cells,"[2]; 2 méthyl propanal 0.0251189, log10[ ] -1.6","53.41, 56.76, 34.34, 35.99, 10.44, 25.45, 49.32, 57.92%"
